Hit rate of the full screen: of about 390,000 compounds, about 910 (0.23%) were called active. The inconclusive results got no clear call from the source; some entries with a clear call stand among them for comparison. The call rests on the fitted dose curve; in most records, active means well fitted inhibition curve with a large enough effect; inconclusive means small, poorly fitted or top-dose-only effect; inactive means no such curve, though single readings can be large or run the other way. A potency beside an inconclusive call is a rough fit, not a confirmed value.
molecular target: Ubiquitin carboxyl-terminal hydrolase 1 (Homo sapiens) (UniProt O94782); experiment: Inhibitors of USP1/UAF1: Primary Screen; conditions: recombinant USP1/UAF1, Ub-Rhodamine cleavage fluorescence; activity change, negative = inhibition: at 57.1 µM (top of the series); further: nearly all actives have a fitted effect of over 60% in size
In short: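 USP1/UAF1 complex (1 nM) preincubated 15 min at room temperature with compound, then Ub-Rho substrate (150 nM final) added. Kinetic fluorescence at 480/540 nm over 6 reads at 60 s intervals; 50 mM HEPES pH 7.8, 0.5 mM EDTA, 0.1 mg/ml BSA, 1 mM TCEP, 0.01% Tween-20.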
On the % scale 0 is the no-effect control and ±100 the full control effect; potency means the concentration at half of the fitted maximal effect.

Protein sequences, listed by entry. Tags and fused reporters are not part of them. Lines headed by an entry give the natural chain unless they say otherwise; changes in a name come on top.
UniProt O94782: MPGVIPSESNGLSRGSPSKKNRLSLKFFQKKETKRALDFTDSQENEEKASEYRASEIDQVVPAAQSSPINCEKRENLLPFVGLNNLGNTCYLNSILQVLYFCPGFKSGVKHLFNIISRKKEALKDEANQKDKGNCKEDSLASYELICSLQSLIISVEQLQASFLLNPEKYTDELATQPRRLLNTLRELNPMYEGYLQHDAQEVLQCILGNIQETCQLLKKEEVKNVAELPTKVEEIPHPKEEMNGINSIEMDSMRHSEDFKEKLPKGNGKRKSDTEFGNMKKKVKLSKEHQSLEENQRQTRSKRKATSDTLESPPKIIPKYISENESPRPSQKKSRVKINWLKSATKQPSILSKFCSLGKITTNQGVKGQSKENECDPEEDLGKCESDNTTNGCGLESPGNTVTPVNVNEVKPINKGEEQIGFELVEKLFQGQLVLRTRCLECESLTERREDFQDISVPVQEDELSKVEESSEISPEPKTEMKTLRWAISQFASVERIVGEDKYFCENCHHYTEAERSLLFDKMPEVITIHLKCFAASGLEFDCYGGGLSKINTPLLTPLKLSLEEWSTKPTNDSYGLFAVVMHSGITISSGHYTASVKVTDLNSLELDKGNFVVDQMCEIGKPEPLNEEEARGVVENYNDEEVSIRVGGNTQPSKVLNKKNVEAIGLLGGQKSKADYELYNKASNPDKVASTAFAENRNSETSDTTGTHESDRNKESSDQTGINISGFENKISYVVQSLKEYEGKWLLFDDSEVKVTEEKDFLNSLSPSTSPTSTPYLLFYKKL

SMILES | Potency | activity change, negative = inhibition
O=C1C=C(Nc2ccccc2)C(=O)c2ccccc21 | inconclusive: 17.8 µM [inhibitor, partial curve] | 
COCCNC(=O)Cn1c(=O)n(CCCC(=O)NCc2ccc3c(c2)OCO3)c(=O)c2sccc21 |  | inactive: -10.2%
Cn1c(N2CCN(C(c3ccccc3)c3ccccc3)CC2)nc2ccccc21 |  | inactive: -12.9%
COc1ccc([C@H]2C[C@H](n3cc(COC(=O)c4ccccc4)nn3)[C@@H](O)CN2C(=O)c2cccs2)cc1 | inconclusive: 0.282 µM [inhibitor, full curve, poor fit] | 
O=C(CCN1C(=O)[C@@H]2Cc3ccccc3CN2C1=O)NCc1ccc(Cl)cc1 | inconclusive: 44.7 µM [inhibitor, partial curve] | 
CC(C)N(C(=O)COC(=O)c1ccccc1C(=O)c1ccc(Cl)c([N+](=O)[O-])c1)C(C)C |  | inactive: -4.53%
O=C(Nc1ccc(CN2CCOCC2)cc1)c1ccc(-c2ccc(Cl)cc2Cl)o1 | inconclusive: 0.316 µM [inhibitor, full curve, poor fit] | 
Cc1cc(C)cc(N(CC(=O)NCc2ccccc2Cl)S(=O)(=O)c2c(C)noc2C)c1 | inconclusive: 3.55 µM [inhibitor, full curve] | 
Cc1cccc(-c2nc(SCC(=O)Nc3ccc4c(c3)OCCO4)c(-c3ccccc3)[nH]2)c1 | inconclusive: 5.62 µM [inhibitor, partial curve] | 
COc1ccc(CNC(=O)Cc2csc3nc(-c4ccc(C)cc4)cn23)cc1 | inconclusive: 0.112 µM [inhibitor, full curve] | 
CCCCc1nn2c(=O)cc(COC(=O)c3ccc(NC(=O)C4CCCCC4)cc3)nc2s1 |  | inactive: 5.87%
COc1ccc(NC(=O)CCn2cccn2)cc1OC | inconclusive: 5.62 µM [inhibitor, partial curve] | 
COc1ccc(/C=c2\s/c(=C/C(=O)c3ccc(C)cc3)[nH]c2=O)c(OC)c1 | inconclusive: 28.2 µM [inhibitor, single point] | 
COc1ccc(S(=O)(=O)N2CCC(C(=O)N[C@@H](C)C(=O)NCc3cccc(OC)c3)CC2)cc1 | inconclusive: 0.0316 µM [inhibitor, full curve, poor fit] | 
Cc1ccc(OCC(=O)Nc2ccccc2N2CCCC2)c(C)c1 | inconclusive: 44.7 µM [inhibitor, partial curve, poor fit] | 
CSc1cccc(N/C(=N/S(=O)(=O)c2ccccc2)NN)c1 | inconclusive: 44.7 µM [inhibitor, partial curve] | 
COc1ccc(C2(CNC(=O)c3ccccc3[N+](=O)[O-])CCOCC2)cc1 | inconclusive: 10 µM [inhibitor, single point] | 
COc1cccc(NC(=O)c2ccc(NC(=O)C(C)C)cc2)c1 | inconclusive: 50.1 µM [inhibitor, partial curve, poor fit] | 
COc1cccc(C(c2sc3nc(C)nn3c2O)N2CCc3ccccc3C2)c1 (stereo unspecified) |  | inactive: -11.4%
Cc1ccc(C(c2sc3nc(-c4ccco4)nn3c2O)N2CCN(Cc3ccccc3)CC2)cc1 (stereo unspecified) |  | inactive: -16.9%
Cc1cccc(N2CCN(C3(c4ccccc4)C(=O)c4ccccc4C3=O)CC2C)c1 (stereo unspecified) | inconclusive: 0.708 µM [inhibitor, full curve, poor fit] | 

SMILES | Potency | activity change, negative = inhibition
CCCc1cc2c(-c3ccccc3)cc(=O)oc2cc1OCc1ccc(C(=O)O)o1 | inconclusive: 50.1 µM [inhibitor, partial curve, poor fit] | 
O=C(CSCc1ccc(Cl)cc1Cl)Nc1ccccc1C(=O)Nc1ccc(C(=O)O)cc1 |  | inactive: -19.5%
Cc1ccc(NC(=O)CCCc2ccccc2)c([N+](=O)[O-])c1 |  | inactive: -9.14%
O=C(Cn1c(=O)oc2cc(S(=O)(=O)NC3CCCC3)ccc21)Nc1ccc(F)c(F)c1 |  | inactive: -21.7%
COc1ccc(C(=O)NCC(C)(C)CNC(=O)c2ccc(OC)cc2)cc1 | inconclusive: 39.8 µM [inhibitor, partial curve, poor fit] | 
CC1CCCN(CCCNC(=O)CN2C(=O)CSc3ccc(S(=O)(=O)N4CCOCC4)cc32)C1 (stereo unspecified) | inconclusive: 89.1 µM [inhibitor, partial curve, poor fit] | 
COc1ccc(N(CC(=O)NCCSCc2ccccc2Cl)S(C)(=O)=O)cc1Cl |  | inactive: -13.8%
CC(C(=O)NCc1ccccc1Cl)N1C(=O)c2ccccc2C1=O (stereo unspecified) |  | inactive: -8.27%
CCOc1ccccc1NC(=O)Cn1nnc(C(=O)Nc2ccc(C)c(C)c2)c1N | inconclusive: 14.1 µM [inhibitor, partial curve, poor fit] | 
CCc1ccc(NCc2cc3cc4c(cc3n(CC(=O)Nc3ccc(F)cc3)c2=O)OCCO4)cc1 | inconclusive: 28.2 µM [inhibitor, partial curve] | 
COCCNc1ncnc2c1c(-c1ccccc1)cn2-c1cccc(Cl)c1 | inconclusive: 5.01 µM [inhibitor, partial curve] | 
OCC[C@@H]1C[C@@H](O)[C@H](O)[C@]2(CCCCO2)O1 | inconclusive: 10 µM [inhibitor, partial curve, poor fit] | 
Cc1ccc(C)c(NC(=O)c2cc(=O)c3cc(C)cc(C)c3o2)c1 |  | inactive: -12.2%
C[C@@H]1CCCCO[C@@H](CN(C)C(=O)Nc2ccc3c(c2)OCO3)[C@@H](C)CN([C@H](C)CO)C(=O)c2cc(N(C)C)ccc2O1 | inconclusive: 0.282 µM [inhibitor, full curve, poor fit] | 
COc1ccc(NS(=O)(=O)c2ccc3[nH]c4c(c3c2)CCCCCC4)cc1 |  | inactive: -9.41%
Cc1csc(=O)n1CCC(=O)N(C)Cc1c(F)cccc1Cl | inconclusive: 5.01 µM [inhibitor, partial curve] | 
CN1CC=C2C(C#N)=C(N)C(C#N)(C#N)[C@H](c3ccoc3)[C@H]2C1 | inconclusive: 31.6 µM [inhibitor, partial curve] | 
CC1=NC(=O)C(N=Nc2ccccc2C(=O)O)N1c1ccccc1 (stereo unspecified) | inconclusive: 11.2 µM [inhibitor, partial curve] | 
Cc1ccc(NC(=O)C2CCCN2S(=O)(=O)c2cccc3cccnc23)cc1C (stereo unspecified) |  | inactive: -26.8%
CCN(CC)c1ccc(C2C(C(N)=O)=C(C)Nc3ncnn32)cc1 (stereo unspecified) | inconclusive: 0.251 µM [inhibitor, full curve, poor fit] | 

Three entries already listed, arranged by length of the SMILES, smallest number first.
SMILES | Potency | activity change, negative = inhibition
O=C1C=C(Nc2ccccc2)C(=O)c2ccccc21 | inconclusive: 17.8 µM [inhibitor, partial curve] | 
Cc1ccc(OCC(=O)Nc2ccccc2N2CCCC2)c(C)c1 | inconclusive: 44.7 µM [inhibitor, partial curve, poor fit] | 
COc1cccc(C(c2sc3nc(C)nn3c2O)N2CCc3ccccc3C2)c1 (stereo unspecified) |  | inactive: -11.4%
